Assay results taken from patent US20030004092A1.
These are yes or no findings as the source states them, for the method shown. In cells and extracts the contact can be indirect. Some binding calls cover weakened binding; strength is not graded here. Tags and fused reporters may be left off the sequences shown.

Amino acid sequences for entries named in this document (tags omitted).
UniProt P01108: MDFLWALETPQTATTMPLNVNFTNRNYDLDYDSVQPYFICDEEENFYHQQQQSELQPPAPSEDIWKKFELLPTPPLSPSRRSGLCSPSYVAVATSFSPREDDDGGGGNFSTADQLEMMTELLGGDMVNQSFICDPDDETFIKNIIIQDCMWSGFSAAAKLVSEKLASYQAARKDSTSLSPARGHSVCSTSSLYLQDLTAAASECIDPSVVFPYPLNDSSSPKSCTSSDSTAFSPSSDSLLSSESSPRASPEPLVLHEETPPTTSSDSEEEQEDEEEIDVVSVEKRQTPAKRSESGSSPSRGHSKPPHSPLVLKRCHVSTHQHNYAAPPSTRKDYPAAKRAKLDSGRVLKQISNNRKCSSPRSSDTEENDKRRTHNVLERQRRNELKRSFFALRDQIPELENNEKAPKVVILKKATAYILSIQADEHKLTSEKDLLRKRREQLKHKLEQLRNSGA

Target: T1, GST-cdr2 fusion protein containing amino acids 16-192 of human cdr2 (human) (UniProt Q01850)
T1 sequence: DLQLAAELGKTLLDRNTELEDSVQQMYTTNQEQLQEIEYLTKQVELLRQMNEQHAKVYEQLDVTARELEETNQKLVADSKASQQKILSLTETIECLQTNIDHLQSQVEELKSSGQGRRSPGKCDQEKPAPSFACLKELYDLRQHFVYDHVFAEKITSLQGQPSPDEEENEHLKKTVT
Assay: GST pull-down, fluorography

binding: binds
Substance: full length in vitro translated ^35S-labeled mouse Myc (from UniProt P01108 1-454)
